Assay [1] concerns the target T1, endogenous Tctp (Drosophila (endogenous in embryos)) (UniProt Q9VGS2).
T1 sequence: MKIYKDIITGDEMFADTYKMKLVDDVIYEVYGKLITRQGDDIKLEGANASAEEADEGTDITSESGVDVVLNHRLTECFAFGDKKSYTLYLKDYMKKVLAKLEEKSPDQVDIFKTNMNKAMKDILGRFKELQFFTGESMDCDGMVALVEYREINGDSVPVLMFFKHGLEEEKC
In words: co-IP; endogenous proteins from wild-type embryo extracts; rabbit anti-Tctp on protein G agarose beads, 4°C overnight.

Amino acid sequences for entries named in this document (tags omitted).
UniProt P13607: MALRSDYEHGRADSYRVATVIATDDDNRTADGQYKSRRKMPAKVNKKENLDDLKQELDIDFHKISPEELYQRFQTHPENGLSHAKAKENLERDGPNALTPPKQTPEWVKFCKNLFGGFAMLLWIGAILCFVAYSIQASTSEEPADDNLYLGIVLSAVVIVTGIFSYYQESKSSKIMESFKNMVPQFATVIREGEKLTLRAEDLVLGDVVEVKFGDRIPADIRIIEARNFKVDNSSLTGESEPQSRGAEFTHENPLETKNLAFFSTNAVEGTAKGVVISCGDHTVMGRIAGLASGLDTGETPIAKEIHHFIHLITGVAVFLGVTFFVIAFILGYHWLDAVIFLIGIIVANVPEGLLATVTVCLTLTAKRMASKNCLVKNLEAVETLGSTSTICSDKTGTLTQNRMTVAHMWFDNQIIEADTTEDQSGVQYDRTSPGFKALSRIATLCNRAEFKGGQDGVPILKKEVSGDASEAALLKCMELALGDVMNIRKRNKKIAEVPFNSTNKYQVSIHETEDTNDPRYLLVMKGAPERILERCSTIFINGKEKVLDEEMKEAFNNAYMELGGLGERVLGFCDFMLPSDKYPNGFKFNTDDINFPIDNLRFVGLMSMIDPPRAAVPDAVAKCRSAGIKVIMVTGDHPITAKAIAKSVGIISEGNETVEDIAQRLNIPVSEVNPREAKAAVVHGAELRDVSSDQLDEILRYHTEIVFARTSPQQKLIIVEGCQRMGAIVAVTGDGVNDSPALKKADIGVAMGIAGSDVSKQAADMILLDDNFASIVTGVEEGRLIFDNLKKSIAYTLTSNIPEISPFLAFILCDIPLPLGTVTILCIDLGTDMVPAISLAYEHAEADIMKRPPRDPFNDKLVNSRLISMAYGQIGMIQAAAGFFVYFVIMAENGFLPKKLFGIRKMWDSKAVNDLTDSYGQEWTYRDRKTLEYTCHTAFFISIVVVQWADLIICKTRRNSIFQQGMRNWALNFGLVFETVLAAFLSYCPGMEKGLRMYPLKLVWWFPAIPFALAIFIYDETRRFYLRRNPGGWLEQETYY
UniProt Q9Y2J2: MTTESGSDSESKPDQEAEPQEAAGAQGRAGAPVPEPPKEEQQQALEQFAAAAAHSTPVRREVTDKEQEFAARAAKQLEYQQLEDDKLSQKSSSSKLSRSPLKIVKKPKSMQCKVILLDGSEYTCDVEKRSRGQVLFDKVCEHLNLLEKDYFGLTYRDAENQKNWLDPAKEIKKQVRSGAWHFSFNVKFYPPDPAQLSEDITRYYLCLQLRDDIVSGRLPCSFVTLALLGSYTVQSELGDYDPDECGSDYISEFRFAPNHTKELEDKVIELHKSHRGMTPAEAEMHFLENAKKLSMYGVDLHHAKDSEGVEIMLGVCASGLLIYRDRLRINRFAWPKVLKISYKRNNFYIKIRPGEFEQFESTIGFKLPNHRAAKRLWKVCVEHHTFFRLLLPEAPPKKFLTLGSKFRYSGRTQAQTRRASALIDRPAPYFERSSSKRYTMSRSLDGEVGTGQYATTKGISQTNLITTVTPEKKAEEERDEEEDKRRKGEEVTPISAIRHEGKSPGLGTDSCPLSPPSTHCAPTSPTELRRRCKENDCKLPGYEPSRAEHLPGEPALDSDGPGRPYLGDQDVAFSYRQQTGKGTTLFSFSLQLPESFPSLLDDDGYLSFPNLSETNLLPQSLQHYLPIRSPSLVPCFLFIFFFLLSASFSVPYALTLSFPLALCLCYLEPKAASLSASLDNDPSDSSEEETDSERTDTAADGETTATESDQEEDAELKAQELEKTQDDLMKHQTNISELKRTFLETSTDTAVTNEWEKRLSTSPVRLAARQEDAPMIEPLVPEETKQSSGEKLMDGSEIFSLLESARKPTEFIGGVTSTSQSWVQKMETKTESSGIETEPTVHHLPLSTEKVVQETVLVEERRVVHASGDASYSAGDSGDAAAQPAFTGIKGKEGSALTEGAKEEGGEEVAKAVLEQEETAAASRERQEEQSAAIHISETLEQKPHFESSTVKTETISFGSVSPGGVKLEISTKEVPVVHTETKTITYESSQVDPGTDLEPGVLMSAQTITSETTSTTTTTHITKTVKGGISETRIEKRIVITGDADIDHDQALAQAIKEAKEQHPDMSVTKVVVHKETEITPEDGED
UniProt Q9HCM4: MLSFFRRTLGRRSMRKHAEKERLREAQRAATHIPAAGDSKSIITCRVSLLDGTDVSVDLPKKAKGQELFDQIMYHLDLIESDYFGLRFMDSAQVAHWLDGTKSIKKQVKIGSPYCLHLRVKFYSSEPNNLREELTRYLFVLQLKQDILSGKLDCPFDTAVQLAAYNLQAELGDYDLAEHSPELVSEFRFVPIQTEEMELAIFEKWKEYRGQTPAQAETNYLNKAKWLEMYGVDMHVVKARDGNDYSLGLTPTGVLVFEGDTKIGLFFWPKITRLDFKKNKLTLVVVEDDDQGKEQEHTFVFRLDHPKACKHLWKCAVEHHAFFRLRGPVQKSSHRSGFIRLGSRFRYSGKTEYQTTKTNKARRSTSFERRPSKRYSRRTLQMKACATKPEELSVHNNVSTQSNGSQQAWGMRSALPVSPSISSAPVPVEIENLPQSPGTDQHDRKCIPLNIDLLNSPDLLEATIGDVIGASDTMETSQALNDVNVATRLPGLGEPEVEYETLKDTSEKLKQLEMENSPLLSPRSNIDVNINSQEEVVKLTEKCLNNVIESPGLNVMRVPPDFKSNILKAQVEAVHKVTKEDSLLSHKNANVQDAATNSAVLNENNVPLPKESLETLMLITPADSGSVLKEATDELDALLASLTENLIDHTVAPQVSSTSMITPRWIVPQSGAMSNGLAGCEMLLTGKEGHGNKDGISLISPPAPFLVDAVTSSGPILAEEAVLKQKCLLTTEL
UniProt Q9V8R9: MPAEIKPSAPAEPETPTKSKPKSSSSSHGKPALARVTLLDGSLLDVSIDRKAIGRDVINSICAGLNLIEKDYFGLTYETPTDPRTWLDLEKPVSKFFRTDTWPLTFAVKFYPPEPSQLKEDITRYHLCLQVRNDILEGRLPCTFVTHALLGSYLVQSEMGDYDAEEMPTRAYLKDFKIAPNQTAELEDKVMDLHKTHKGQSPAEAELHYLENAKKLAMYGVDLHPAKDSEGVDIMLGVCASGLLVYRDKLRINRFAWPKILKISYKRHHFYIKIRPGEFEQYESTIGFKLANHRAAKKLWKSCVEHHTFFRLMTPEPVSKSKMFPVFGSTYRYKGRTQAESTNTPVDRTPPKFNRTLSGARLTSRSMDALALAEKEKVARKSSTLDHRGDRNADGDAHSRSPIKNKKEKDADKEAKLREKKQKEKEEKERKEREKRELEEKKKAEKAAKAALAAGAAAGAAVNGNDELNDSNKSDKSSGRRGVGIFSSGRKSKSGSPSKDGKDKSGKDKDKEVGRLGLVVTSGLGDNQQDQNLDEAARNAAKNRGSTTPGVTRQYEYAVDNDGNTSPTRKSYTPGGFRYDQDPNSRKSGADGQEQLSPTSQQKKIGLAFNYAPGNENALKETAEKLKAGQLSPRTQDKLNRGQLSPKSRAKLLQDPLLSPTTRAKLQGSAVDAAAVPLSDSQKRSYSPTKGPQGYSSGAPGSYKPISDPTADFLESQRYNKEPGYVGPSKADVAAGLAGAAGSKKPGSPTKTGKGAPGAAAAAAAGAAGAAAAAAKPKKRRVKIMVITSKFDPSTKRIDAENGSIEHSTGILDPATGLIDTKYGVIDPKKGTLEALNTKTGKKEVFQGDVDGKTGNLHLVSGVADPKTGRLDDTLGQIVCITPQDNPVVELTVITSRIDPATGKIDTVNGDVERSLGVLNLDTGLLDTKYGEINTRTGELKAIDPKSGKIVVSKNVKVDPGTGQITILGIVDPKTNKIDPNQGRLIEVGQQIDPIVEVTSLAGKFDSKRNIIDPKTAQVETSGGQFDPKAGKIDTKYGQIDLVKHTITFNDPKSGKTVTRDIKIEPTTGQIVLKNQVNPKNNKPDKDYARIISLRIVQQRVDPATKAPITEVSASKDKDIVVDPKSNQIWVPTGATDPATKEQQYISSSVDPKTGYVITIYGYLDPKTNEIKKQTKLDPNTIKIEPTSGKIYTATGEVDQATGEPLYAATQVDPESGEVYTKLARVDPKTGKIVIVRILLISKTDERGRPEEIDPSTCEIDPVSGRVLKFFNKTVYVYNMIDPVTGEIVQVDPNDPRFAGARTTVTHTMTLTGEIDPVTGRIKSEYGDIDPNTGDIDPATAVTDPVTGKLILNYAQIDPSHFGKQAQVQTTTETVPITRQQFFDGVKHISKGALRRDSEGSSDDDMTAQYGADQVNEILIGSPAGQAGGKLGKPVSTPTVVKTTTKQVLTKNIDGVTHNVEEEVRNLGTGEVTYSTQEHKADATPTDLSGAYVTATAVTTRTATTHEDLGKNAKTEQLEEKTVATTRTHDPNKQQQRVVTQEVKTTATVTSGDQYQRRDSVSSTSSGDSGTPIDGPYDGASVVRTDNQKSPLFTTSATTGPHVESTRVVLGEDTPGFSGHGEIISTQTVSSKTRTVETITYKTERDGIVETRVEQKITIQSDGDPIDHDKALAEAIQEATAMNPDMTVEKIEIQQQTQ

For assay [2], the target named is Flag-ATPα (Drosophila) (UniProt P13607). In words: co-IP; S2 cells transiently transfected with Flag- and Myc-tagged constructs, lysed 24 h after transfection; lysis buffer 20 mM HEPES pH 7.5, 100 mM KCl, 2.5 mM EDTA, 5% glycerol, 0.05% Triton X-100; immunoprecipitation at 4°C overnight.
Assay [3] addresses His-GST-EPB41L3 (human Cora homolog) (human) (UniProt Q9Y2J2). Put plainly: pull-down; GST-tagged proteins as baits, MBP-tagged Tctp as prey; 10 μg/mL of each; PDB buffer (20 mM Tris-HCl pH 7.5, 150 mM NaCl, 0.5 mM EDTA, 10% glycerol, 0.1% Triton X-100, 1 mM DTT); both purified.
Assay [4] addresses His-GST-EPB41L5 (human Yrt homolog) (human) (UniProt Q9HCM4). Described as above.

These are yes or no findings as the source states them, for the method shown. For some of these results: Binding seen in cells or lysates may run through a third protein. Some results given as binding are weak or reduced against the parent protein; the word gives no strength. For some of these results: Sequences can lack the tags named with a protein.

With “endogenous Cora isoform of about 200 kDa (from UniProt Q9V8R9 1-1698)”, the binding entry in assay [1] is on record as “binds”.

B1: Myc-Tctp (protein, UniProt Q9VGS2 1-172)
chain: T1 sequence
In the case of B1, in assay [2], the binding entry is “binds”.

B2: human TCTP (protein, UniProt P13693 1-172)
chain: MIIYRDLISHDEMFSDIYKIREIADGLCLEVEGKMVSRTEGNIDDSLIGGNASAEGPEGEGTESTVITGVDIVMNHHLQETSFTKEAYKKYIKDYMKSIKGKLEEQRPERVKPFMTGAAEQIKHILANFKNYQFFIGENMNPDGMVALLDYREDGVTPYMIFFKDGLEMEKC
In the case of B2, the binding result is reported as “binds weakly” in assay [3] and “binds” in assay [4].

The record behind these values is article PMC7329144.
